Results are given in words; binding and its absence hold for the method and conditions named. Binding seen in cells or lysates may run through a third protein. Some results given as binding are weak or reduced against the parent protein; the word gives no strength.
Assays:
[1] = molecular target: leptin receptor ObR (mouse (endogenous in GT1-7)) (UniProt P48356); experiment: co-IP; GT1-7 cell extracts, cells transfected with control siRNA or LRP1-specific siRNA for 48 h; immunoprecipitated with control or anti-ObR antibody, blotted for JAK2 (also anti-JAK2 precipitate blotted for ObR, with blocking peptide control)
HA-ObRb [2] = molecular target: HA-ObRb (UniProt P48356); experiment: co-IP; GT1-7 cells transiently transfected with HA-ObRb for 48 h, serum-starved overnight, treated with 50 nM leptin or vehicle for 30 min; extracts immunoprecipitated with anti-HA antibody, blotted for JAK2
[3] = molecular target: LDL receptor (LDLR) (mouse (endogenous in GT1-7)) (UniProt P35951); experiment: cross-linking; 125I-leptin incubated with GT1-7 cells (untransfected, or transfected with HA-ObR) for 1 h at 4°C, chemical cross-linking, immunoprecipitation with antibodies (with antigen blocking controls), SDS-PAGE; only the binder purified
HA-ObRb [4] = molecular target: HA-ObRb (UniProt P48356); experiment: as above
[5] = molecular target: leptin receptor ObR (mouse (endogenous in GT1-7)) (UniProt P48356); experiment: as above

Amino acid sequences for entries named in this document (tags omitted). Residues count along the entry.
UniProt P48356, residues 22-1162: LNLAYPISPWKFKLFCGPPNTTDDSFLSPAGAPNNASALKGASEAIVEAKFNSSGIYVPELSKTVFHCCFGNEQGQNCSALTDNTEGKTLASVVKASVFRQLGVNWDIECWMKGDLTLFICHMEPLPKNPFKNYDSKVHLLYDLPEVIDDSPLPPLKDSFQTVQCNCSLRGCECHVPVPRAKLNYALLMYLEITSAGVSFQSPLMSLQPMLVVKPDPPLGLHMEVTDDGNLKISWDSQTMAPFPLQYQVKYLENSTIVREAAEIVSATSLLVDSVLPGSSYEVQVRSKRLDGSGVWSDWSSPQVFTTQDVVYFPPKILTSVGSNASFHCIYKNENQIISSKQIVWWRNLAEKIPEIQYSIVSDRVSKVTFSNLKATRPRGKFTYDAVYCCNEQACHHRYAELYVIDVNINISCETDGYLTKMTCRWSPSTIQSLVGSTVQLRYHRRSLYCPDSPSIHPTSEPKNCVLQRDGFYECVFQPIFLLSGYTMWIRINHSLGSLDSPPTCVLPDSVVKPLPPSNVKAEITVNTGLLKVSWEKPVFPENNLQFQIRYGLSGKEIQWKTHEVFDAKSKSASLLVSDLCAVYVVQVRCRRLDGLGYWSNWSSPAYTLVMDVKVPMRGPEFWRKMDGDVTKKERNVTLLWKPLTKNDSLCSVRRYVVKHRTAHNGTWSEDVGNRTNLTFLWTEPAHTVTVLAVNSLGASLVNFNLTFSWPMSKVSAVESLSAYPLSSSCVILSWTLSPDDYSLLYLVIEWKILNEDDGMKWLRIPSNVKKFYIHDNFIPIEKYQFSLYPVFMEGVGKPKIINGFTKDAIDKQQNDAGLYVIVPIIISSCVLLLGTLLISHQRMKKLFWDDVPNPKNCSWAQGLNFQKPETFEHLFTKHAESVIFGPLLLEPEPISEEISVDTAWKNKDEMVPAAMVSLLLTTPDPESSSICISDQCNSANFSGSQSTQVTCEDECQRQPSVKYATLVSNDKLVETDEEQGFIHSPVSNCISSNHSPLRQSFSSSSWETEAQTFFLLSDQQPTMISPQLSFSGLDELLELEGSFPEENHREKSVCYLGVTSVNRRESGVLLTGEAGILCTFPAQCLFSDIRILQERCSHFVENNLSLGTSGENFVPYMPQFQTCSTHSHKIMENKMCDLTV
UniProt P35951, residues 22-862: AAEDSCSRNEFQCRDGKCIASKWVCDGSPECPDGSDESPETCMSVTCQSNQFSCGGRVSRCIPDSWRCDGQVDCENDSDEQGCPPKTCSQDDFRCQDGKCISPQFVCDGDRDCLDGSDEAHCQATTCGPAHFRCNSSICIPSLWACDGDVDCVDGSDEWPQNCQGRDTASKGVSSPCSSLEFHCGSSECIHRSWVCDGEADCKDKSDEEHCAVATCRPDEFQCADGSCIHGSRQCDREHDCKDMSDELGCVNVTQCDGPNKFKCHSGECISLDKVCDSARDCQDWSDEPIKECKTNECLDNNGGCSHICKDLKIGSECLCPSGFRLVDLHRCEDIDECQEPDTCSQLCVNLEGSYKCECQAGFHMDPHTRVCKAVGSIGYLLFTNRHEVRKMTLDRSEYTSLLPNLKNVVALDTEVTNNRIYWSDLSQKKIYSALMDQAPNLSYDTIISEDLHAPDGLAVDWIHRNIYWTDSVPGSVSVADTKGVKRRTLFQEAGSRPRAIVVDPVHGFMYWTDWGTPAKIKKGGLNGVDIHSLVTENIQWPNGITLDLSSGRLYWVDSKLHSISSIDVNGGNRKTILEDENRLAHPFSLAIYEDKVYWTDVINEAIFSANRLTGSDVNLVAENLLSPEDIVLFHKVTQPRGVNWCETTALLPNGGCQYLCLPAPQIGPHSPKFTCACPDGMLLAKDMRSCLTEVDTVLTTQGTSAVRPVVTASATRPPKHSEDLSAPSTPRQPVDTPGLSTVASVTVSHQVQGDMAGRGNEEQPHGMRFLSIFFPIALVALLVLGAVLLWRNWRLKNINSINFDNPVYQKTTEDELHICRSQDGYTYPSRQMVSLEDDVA
UniProt Q62120: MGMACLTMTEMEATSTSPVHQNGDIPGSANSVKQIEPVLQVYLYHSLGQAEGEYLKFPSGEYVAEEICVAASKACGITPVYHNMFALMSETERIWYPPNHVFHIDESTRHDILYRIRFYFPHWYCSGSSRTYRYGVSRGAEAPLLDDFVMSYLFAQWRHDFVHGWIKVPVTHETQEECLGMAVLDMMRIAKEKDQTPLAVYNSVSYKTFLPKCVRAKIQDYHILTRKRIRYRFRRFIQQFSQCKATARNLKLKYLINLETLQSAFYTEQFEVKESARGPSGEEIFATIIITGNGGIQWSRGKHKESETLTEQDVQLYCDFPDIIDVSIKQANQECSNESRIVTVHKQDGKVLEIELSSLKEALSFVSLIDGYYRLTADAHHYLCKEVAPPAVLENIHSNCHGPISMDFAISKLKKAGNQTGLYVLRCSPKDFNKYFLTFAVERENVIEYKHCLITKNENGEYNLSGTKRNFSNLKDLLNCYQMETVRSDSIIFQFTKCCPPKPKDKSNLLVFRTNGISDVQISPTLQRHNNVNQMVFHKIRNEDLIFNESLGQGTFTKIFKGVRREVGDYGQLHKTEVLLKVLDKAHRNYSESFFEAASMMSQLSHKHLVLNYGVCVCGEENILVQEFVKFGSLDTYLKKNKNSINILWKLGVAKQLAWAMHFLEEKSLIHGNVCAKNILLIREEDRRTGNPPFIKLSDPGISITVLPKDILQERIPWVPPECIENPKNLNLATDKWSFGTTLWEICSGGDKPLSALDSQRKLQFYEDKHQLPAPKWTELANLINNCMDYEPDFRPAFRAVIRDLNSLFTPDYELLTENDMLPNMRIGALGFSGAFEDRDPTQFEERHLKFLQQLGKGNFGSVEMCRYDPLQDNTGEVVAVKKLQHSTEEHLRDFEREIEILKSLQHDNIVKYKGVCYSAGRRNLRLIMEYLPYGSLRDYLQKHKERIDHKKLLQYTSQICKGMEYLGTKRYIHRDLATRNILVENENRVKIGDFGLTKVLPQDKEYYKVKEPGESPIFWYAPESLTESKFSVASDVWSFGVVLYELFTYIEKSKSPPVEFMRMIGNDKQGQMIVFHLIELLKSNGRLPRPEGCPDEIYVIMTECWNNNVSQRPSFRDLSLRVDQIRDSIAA
UniProt P41160, residues 22-167: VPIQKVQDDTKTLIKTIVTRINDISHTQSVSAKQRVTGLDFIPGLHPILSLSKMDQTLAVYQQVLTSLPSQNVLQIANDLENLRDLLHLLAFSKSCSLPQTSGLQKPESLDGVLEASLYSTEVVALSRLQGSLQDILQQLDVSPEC

binding [1]	binding (HA-ObRb [2])	binding [3]	binding (HA-ObRb [4])	binding [5]	Substance
binds	binds				janus kinase 2 (JAK2) (from UniProt Q62120 1-1132) (enzyme)
		no binding	binds	binds	recombinant mouse leptin (from UniProt P41160 22-167) (ligand)

From publication PMC3019112
